# Experimental data taken from publication PMC11257396.
# Chains of the proteins cited; added tags and fusions are not shown.
# UniProt A6NHR9: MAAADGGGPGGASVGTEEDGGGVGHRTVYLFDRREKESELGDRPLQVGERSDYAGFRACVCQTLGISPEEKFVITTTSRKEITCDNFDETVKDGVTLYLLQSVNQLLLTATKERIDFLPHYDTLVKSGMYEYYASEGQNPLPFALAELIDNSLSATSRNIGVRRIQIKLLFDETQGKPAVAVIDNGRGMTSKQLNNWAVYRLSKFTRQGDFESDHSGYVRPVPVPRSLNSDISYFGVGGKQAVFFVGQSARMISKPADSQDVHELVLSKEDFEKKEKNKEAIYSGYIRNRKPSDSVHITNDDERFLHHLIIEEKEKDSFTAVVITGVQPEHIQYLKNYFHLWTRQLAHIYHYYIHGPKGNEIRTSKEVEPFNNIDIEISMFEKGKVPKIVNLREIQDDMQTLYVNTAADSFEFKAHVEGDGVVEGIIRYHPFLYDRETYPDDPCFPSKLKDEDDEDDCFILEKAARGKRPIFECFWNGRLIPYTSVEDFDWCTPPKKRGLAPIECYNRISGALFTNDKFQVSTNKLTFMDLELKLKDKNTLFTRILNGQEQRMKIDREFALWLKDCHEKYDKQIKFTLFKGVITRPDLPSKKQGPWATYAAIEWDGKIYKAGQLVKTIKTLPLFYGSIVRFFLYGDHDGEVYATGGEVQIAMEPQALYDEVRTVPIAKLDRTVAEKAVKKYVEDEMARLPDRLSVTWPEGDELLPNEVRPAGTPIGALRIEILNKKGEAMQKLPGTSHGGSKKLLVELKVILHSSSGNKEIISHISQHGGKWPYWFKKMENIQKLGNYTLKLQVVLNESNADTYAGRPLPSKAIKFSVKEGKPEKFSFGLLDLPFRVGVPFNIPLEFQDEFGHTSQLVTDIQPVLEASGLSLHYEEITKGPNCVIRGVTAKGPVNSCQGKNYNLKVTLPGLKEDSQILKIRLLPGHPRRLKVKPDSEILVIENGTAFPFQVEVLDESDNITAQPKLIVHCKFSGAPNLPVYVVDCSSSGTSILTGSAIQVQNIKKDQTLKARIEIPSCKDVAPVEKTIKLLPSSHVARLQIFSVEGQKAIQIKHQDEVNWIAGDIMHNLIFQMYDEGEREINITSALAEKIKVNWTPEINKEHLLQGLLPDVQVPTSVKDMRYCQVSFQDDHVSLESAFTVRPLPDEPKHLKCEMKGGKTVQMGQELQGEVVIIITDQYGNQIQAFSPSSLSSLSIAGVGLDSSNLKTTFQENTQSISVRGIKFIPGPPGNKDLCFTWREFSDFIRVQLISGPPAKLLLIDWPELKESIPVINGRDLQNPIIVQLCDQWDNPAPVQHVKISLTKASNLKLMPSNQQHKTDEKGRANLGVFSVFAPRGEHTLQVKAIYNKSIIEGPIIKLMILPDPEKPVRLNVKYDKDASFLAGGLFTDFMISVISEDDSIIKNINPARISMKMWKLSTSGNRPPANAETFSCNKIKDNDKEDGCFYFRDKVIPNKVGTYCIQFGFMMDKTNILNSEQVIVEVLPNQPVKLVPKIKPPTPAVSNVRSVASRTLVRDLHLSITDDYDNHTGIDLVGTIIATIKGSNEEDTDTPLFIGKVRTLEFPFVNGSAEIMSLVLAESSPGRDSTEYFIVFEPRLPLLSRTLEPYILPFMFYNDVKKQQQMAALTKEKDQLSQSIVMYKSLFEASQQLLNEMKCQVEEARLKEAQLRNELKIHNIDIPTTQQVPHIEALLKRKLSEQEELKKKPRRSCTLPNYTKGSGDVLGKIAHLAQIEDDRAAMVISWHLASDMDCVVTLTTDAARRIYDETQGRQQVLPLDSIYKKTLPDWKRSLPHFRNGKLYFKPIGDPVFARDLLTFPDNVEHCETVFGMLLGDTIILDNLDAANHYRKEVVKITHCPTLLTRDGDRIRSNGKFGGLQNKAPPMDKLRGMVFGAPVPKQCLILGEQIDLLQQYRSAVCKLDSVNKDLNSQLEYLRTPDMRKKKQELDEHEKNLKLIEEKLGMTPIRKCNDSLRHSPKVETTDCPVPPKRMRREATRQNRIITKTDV
# Results are given in words; binding and its absence hold for the method and conditions named. In cells and extracts the contact can be indirect. Some binding calls cover weakened binding; strength is not graded here. Tags and fused reporters may be left off the sequences shown.
# Biological target: T1, FLAG-tagged LRIF1 (ligand-dependent nuclear receptor-interacting factor 1), shRNA-resistant, full-length (human) (UniProt Q5T3J3)
# T1 sequence: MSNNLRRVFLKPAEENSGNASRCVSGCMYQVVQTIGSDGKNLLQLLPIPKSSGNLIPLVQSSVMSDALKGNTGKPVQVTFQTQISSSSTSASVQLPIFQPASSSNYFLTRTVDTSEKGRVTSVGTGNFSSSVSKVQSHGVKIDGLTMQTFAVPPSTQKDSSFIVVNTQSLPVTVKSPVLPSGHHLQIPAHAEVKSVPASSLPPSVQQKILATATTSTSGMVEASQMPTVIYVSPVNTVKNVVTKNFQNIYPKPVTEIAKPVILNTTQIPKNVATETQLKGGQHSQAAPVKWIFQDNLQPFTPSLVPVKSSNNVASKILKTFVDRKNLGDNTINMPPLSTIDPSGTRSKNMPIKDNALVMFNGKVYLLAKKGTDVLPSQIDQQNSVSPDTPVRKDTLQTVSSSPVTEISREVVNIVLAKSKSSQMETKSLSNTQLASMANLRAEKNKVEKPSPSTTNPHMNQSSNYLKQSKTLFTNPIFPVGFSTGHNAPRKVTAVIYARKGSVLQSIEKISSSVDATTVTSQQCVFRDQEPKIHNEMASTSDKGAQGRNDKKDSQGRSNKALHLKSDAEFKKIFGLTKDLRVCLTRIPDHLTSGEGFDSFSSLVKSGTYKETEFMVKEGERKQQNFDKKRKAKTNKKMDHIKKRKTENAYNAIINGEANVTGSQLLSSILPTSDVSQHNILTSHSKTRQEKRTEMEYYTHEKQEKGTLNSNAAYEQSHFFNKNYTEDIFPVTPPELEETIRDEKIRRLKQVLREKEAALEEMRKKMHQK
# Assay: co-IP; anti-FLAG antibody (or IgG) on NP-40 lysates of HEK293 cells transfected with FLAG-LRIF1, m1 or m2, 48 h after transfection; protein A/G magnetic beads, 4°C; Western blot
substance,measurement,value
"SMCHD1 (Structural Maintenance of Chromosomes Hinge Domain 1), endogenous (from UniProt A6NHR9 1-2005)",binding,binds
